The list shows a part of the results. The data scatter; read single values as rough.

The chains behind the UniProt entries cited, without tags or fusion partners. Where a name states a change or a piece, a line headed by the entry shows the natural chain unless it says otherwise. Residues count along the entry.
UniProt Q5VYK3: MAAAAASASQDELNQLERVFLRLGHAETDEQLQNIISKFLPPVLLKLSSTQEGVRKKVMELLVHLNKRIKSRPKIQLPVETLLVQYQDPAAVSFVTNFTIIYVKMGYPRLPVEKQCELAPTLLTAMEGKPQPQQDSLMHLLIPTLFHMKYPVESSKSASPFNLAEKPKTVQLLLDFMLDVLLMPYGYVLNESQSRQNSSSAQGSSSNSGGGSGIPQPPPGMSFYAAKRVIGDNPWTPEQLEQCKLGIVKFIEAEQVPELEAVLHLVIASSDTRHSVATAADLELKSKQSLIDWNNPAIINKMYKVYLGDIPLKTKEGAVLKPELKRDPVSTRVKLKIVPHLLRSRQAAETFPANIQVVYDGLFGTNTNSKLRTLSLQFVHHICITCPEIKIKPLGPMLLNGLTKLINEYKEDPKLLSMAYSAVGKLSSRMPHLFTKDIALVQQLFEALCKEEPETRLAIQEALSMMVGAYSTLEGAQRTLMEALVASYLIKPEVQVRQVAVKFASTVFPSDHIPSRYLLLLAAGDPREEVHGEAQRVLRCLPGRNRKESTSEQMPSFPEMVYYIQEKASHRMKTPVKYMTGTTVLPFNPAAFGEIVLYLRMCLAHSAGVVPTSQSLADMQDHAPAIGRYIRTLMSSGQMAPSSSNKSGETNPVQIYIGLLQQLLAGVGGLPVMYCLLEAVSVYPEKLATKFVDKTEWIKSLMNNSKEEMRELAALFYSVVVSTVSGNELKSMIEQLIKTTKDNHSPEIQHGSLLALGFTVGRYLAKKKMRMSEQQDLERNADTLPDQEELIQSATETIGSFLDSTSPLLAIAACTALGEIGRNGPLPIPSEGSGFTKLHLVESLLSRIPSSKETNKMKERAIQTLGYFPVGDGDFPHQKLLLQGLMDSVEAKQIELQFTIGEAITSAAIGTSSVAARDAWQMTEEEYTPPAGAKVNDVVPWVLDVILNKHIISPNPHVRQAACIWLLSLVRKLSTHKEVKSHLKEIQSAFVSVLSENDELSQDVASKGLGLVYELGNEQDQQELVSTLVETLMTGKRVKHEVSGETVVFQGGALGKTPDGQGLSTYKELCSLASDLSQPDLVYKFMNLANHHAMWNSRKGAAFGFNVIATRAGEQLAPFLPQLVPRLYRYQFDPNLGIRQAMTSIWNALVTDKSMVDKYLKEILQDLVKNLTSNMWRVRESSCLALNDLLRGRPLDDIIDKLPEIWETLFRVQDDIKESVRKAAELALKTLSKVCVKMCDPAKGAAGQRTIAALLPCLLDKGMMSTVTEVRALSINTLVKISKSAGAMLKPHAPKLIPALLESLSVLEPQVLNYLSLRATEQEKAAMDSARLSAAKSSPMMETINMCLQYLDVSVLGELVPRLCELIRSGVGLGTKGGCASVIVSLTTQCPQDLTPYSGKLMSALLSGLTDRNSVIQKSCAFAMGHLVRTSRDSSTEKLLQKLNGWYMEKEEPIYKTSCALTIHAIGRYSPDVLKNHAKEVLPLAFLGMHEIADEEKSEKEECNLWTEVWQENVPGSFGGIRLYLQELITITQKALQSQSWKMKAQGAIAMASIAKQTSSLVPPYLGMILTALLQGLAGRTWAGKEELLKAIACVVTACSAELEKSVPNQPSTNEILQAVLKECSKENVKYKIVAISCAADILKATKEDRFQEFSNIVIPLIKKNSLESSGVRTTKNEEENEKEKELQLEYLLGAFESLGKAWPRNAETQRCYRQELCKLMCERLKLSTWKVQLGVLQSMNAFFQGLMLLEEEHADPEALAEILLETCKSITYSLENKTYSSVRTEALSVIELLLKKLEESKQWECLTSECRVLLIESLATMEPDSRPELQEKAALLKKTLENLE
UniProt Q9H410: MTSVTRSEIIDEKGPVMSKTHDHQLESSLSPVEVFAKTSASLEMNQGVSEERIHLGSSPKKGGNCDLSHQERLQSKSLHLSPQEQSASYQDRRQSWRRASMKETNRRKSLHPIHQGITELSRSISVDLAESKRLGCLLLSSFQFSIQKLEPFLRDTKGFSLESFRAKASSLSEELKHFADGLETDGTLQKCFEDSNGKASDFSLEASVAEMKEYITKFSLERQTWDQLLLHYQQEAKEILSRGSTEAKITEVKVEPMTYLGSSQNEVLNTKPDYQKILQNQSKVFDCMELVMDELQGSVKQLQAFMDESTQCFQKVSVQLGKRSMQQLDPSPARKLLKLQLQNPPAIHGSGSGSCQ
UniProt P63167, 10-31: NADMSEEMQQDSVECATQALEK
UniProt Q96F86: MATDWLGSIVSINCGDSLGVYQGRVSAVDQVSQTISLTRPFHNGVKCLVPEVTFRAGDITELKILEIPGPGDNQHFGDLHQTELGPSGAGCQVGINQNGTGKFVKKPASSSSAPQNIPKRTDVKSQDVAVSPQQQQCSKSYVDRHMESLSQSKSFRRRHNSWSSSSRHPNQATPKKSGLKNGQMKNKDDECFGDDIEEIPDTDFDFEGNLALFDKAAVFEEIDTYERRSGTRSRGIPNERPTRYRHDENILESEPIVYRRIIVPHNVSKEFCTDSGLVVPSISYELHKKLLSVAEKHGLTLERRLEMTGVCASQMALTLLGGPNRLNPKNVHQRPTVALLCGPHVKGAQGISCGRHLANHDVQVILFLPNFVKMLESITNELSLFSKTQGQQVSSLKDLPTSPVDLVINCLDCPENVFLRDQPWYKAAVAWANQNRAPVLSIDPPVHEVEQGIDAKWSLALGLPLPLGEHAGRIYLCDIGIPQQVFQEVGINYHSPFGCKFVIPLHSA
UniProt O75521, 71-90: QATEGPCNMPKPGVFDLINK
UniProt Q15717: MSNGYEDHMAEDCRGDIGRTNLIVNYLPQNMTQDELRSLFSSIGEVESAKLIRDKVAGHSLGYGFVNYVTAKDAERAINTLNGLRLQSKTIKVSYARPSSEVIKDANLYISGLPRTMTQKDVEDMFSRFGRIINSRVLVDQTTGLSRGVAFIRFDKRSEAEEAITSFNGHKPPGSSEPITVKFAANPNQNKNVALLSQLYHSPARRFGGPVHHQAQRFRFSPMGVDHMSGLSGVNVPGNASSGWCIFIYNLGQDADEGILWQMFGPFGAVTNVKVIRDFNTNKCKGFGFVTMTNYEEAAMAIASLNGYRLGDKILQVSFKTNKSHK
UniProt A8K855: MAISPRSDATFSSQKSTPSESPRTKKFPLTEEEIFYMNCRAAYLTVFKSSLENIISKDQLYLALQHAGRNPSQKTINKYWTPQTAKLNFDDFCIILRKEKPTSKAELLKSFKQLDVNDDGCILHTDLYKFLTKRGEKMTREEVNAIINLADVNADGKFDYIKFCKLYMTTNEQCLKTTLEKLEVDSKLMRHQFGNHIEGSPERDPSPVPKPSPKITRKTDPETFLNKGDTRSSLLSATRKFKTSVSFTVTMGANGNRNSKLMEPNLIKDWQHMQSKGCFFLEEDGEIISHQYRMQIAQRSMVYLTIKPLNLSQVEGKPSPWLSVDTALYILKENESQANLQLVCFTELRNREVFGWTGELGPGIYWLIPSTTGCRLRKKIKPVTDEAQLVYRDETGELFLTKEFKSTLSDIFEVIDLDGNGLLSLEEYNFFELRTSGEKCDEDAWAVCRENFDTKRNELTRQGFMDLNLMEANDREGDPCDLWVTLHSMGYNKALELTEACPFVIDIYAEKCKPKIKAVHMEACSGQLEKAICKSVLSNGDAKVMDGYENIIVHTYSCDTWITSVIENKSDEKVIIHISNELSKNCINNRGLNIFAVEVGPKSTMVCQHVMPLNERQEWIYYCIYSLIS
UniProt O60841: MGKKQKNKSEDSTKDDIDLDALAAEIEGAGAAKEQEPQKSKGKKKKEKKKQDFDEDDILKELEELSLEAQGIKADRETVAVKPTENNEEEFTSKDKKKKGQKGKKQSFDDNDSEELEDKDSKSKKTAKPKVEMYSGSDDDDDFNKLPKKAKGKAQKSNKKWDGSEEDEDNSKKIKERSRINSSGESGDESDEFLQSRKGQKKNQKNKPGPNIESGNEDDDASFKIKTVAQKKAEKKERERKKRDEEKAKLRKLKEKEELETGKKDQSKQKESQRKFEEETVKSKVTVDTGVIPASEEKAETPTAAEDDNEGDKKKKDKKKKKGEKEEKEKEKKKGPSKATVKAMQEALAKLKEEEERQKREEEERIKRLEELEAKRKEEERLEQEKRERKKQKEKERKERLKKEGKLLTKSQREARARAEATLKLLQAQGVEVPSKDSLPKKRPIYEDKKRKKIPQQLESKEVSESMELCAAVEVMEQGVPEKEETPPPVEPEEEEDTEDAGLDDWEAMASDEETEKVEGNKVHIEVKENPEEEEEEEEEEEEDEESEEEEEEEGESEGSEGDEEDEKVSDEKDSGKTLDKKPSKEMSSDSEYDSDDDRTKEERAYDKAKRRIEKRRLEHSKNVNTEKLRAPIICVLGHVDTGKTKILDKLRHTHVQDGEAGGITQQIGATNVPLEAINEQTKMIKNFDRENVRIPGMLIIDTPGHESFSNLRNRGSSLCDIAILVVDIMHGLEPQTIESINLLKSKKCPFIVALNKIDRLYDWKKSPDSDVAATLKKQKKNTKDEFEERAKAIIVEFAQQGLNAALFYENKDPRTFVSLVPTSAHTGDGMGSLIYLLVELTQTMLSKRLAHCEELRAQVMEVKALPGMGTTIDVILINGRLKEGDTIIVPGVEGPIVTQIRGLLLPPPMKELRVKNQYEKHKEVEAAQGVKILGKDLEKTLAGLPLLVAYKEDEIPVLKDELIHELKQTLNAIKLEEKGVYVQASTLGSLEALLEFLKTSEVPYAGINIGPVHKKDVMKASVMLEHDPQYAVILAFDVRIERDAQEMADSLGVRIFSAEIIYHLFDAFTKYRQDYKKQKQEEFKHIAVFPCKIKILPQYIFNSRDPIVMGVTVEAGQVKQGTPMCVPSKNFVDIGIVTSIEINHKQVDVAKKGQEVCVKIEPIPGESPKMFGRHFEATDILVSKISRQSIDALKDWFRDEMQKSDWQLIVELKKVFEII
UniProt Q15029: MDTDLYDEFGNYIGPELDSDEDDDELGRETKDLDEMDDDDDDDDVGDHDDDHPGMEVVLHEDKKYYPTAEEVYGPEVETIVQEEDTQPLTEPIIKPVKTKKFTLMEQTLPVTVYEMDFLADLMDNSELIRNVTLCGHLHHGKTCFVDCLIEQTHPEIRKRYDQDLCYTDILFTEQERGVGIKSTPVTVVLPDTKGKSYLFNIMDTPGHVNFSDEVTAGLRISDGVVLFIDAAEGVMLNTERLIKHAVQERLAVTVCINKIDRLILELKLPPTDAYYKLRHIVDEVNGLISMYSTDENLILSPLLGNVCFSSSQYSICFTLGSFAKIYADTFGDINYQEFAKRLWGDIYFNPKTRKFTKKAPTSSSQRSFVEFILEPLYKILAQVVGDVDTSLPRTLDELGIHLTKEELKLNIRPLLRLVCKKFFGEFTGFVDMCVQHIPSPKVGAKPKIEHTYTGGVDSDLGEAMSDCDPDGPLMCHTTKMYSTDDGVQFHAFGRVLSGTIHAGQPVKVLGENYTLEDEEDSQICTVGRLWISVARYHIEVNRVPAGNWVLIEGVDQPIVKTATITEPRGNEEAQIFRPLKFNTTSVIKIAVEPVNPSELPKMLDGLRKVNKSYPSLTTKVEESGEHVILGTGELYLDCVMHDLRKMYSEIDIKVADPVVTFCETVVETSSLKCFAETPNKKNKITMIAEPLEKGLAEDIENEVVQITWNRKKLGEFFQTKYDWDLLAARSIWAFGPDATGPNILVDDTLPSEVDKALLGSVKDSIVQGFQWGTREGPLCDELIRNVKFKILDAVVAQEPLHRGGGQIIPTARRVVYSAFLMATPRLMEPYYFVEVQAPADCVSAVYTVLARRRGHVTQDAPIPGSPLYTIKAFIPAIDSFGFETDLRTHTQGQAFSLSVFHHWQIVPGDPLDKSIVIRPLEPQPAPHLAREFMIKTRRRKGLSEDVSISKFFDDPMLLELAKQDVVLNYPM
UniProt Q9UBQ5, 177-199: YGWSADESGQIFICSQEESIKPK
UniProt P57772: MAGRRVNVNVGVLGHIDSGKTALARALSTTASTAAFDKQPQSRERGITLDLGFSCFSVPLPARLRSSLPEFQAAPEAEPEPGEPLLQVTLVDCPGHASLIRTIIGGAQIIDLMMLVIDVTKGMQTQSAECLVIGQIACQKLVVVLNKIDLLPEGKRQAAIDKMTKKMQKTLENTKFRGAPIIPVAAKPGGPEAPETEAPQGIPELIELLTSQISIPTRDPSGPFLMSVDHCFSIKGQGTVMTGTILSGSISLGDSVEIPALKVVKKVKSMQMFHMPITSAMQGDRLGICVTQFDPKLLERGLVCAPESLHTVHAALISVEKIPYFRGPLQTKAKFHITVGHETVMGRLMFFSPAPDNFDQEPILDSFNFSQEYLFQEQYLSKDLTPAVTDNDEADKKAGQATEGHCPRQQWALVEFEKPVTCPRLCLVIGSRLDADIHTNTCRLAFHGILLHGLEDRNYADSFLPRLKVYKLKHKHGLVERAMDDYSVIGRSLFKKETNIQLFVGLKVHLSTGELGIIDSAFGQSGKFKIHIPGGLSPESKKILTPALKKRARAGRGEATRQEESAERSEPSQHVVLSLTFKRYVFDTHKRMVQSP

Compound in one assay: ClCC(=O)N[C@@H]1CCCc2ccccc12
Kind of assay: log2 mean competition ratio of IA-DTB cysteine labelling (DMSO/compound) (log2 ratio); higher = stronger cysteine engagement by compound. The note with it: 50 µM; treatment time: 4 h; cell line lysate: HEK293T. As to the method: (§1)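 IA-DTB competitive cysteine chemoproteomics in HEK293T RIPA lysate. Lysates were treated with compound 29 or 30 at 50 or 200 µM for 4 h, then IA-DTB (500 µM, 1 h), trypsin-digested, NeutrAvidin-enriched and analysed by diaPASEF. Competition ratio = intensity DMSO / intensity compound (n=4 treated, n=64 DMSO); binding: mean log2 CR ≥ 1 and p ≤ 0.05 plus QC filters. Target is the cysteine site.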
In the case of DTX3L C250 (UniProt Q8TDB6), the “log2 mean competition ratio” value turned out to be 0.0253.

For EGFR C775 (UniProt P00533), the “log2 mean competition ratio” value is -0.0391.

In the case of ECPAS C243 (UniProt Q5VYK3), the “log2 mean competition ratio” value was -0.274.

In the case of DSN1 C65 (UniProt Q9H410), the “log2 mean competition ratio” value is -0.0135.

As to E2F7 C151, the “log2 mean competition ratio” value came out at 0.118.

EFL1 C831 (UniProt Q7Z2Z2): the “log2 mean competition ratio” value is 0.179.

As for ECT2 C796 (UniProt Q9H8V3), the “log2 mean competition ratio” value is -0.0352.

As to EGLN1 C208 (UniProt Q9GZT9), the “log2 mean competition ratio” value came out at 0.0772.

DSP C57 (UniProt P15924): the “log2 mean competition ratio” value was -0.483.

Consider DUSP11 C117, for which the “log2 mean competition ratio” value was -0.169.

For the target EFL1 C402 (UniProt Q7Z2Z2), the “log2 mean competition ratio” value came out at 0.0727.

Regarding E2F5 C121, the “log2 mean competition ratio” value worked out at 0.0122.

As to EIF3I C144, the “log2 mean competition ratio” value is -0.274.

As for DST C6799 (UniProt Q03001), the “log2 mean competition ratio” value is -0.403.

With DUS1L C426 (UniProt Q6P1R4), the “log2 mean competition ratio” value is 0.233.

For DYNC2I1 C1047, the “log2 mean competition ratio” value was found to be 0.00067.

ELAC2 C609 (UniProt Q9BQ52): the “log2 mean competition ratio” value turned out to be 0.00164.

Consider DYNLL1 C24 (UniProt P63167), for which the “log2 mean competition ratio” value is -0.345.

For DSG2 C580 (UniProt Q14126), the “log2 mean competition ratio” value is -0.186.

On to EDC3 C47 (UniProt Q96F86), for which the “log2 mean competition ratio” value was -0.0259.

As for ECI2 C77 (UniProt O75521), the “log2 mean competition ratio” value is -0.0316.

Take ELAVL1 C13 (UniProt Q15717): the “log2 mean competition ratio” value was -0.207.

For DST C7524 (UniProt Q03001), the “log2 mean competition ratio” value turned out to be 0.271.

Consider EFCAB7 C524 (UniProt A8K855), for which the “log2 mean competition ratio” value is -0.123.

Take DSC3 C814: the “log2 mean competition ratio” value is -0.162.

As for EIF5B C635 (UniProt O60841), the “log2 mean competition ratio” value turned out to be 0.0547.

Take EFTUD2 C780 (UniProt Q15029): the “log2 mean competition ratio” value worked out at 0.114.

DYNC1LI2 C191 (UniProt O43237): the “log2 mean competition ratio” value was 0.0513.

DYNC1H1 C4438 (UniProt Q14204): the “log2 mean competition ratio” value is -0.622.

As to DST C2061 (UniProt Q03001), the “log2 mean competition ratio” value is -0.384.

For EIF3K C190 (UniProt Q9UBQ5), the “log2 mean competition ratio” value turned out to be 0.11.

For EEF2 C591 (UniProt P13639), the “log2 mean competition ratio” value is -0.453.

EEFSEC C289 (UniProt P57772): the “log2 mean competition ratio” value came out at 0.0871.

As for DSG2 C840 (UniProt Q14126), the “log2 mean competition ratio” value was -0.253.

DSP C1280 (UniProt P15924): the “log2 mean competition ratio” value was -0.0988.

Consider EHBP1 C849 (UniProt Q8NDI1), for which the “log2 mean competition ratio” value amounted to 0.475.

Consider DSP C899 (UniProt P15924), for which the “log2 mean competition ratio” value was 0.0302.

The assay is the same for the next values; noted with them: 200 µM; treatment time: 4 h; cell line lysate: HEK293T.
For DTX3L C250 (UniProt Q8TDB6), the “log2 mean competition ratio” value was 0.181.

For the target EGFR C775 (UniProt P00533), the “log2 mean competition ratio” value came out at 0.0372.

With ECPAS C243 (UniProt Q5VYK3), the “log2 mean competition ratio” value came out at 0.238.

For the target DSN1 C65 (UniProt Q9H410), the “log2 mean competition ratio” value is -0.185.

For the target E2F7 C151, the “log2 mean competition ratio” value turned out to be 0.155.

As for EFL1 C831 (UniProt Q7Z2Z2), the “log2 mean competition ratio” value is -0.0511.

On to ECT2 C796 (UniProt Q9H8V3), for which the “log2 mean competition ratio” value was determined as 0.0648.

Take EGLN1 C208 (UniProt Q9GZT9): the “log2 mean competition ratio” value is 0.468.

Take DSP C57 (UniProt P15924): the “log2 mean competition ratio” value was 0.0598.

In the case of DUSP11 C117, the “log2 mean competition ratio” value was -0.432.

EFL1 C402 (UniProt Q7Z2Z2): the “log2 mean competition ratio” value was 0.147.

For E2F5 C121, the “log2 mean competition ratio” value is 0.302.

Regarding EIF3I C144, the “log2 mean competition ratio” value stood at 0.12.

As for DST C6799 (UniProt Q03001), the “log2 mean competition ratio” value was 0.0265.

Take DUS1L C426 (UniProt Q6P1R4): the “log2 mean competition ratio” value was 0.0901.

With DYNC2I1 C1047, the “log2 mean competition ratio” value was 0.382.

As for ELAC2 C609 (UniProt Q9BQ52), the “log2 mean competition ratio” value was -0.29.

Take DYNLL1 C24 (UniProt P63167): the “log2 mean competition ratio” value is -0.0409.

Turning to DSG2 C580 (UniProt Q14126), the “log2 mean competition ratio” value was 0.0775.

Consider EDC3 C47 (UniProt Q96F86), for which the “log2 mean competition ratio” value is -0.2.

With ECI2 C77 (UniProt O75521), the “log2 mean competition ratio” value was found to be 0.542.

For ELAVL1 C13 (UniProt Q15717), the “log2 mean competition ratio” value was found to be 0.139.

In the case of DST C7524 (UniProt Q03001), the “log2 mean competition ratio” value came to 0.089.

As to EFCAB7 C524 (UniProt A8K855), the “log2 mean competition ratio” value turned out to be 0.176.

As to DSC3 C814, the “log2 mean competition ratio” value was 0.308.

In the case of EIF5B C635 (UniProt O60841), the “log2 mean competition ratio” value is -0.00775.

On to EFTUD2 C780 (UniProt Q15029), for which the “log2 mean competition ratio” value is 0.249.

As to DYNC1LI2 C191 (UniProt O43237), the “log2 mean competition ratio” value is -0.259.

Regarding DYNC1H1 C4438 (UniProt Q14204), the “log2 mean competition ratio” value came out at 0.0898.

Regarding DST C2061 (UniProt Q03001), the “log2 mean competition ratio” value turned out to be 0.18.

Turning to EIF3K C190 (UniProt Q9UBQ5), the “log2 mean competition ratio” value was -0.308.

With EEF2 C591 (UniProt P13639), the “log2 mean competition ratio” value stood at 0.331.

On to EEFSEC C289 (UniProt P57772), for which the “log2 mean competition ratio” value is 0.0719.

For the target DSG2 C840 (UniProt Q14126), the “log2 mean competition ratio” value is -0.077.

As to DSP C1280 (UniProt P15924), the “log2 mean competition ratio” value was determined as 0.00896.

Consider EHBP1 C849 (UniProt Q8NDI1), for which the “log2 mean competition ratio” value is -0.079.

Take EFR3A C538 (UniProt Q14156): the “log2 mean competition ratio” value was -0.0305.

Regarding DSP C899 (UniProt P15924), the “log2 mean competition ratio” value is -0.251.

Compound in the next assay: ClCC(=O)N[C@H]1CCCc2ccccc12
The assay is described as above. The note with it: 50 µM; treatment time: 4 h; cell line lysate: HEK293T. As for the experimental part: as §1
With DTX3L C250 (UniProt Q8TDB6), the “log2 mean competition ratio” value is -0.262.

Consider EGFR C775 (UniProt P00533), for which the “log2 mean competition ratio” value was 0.15.

Regarding ECPAS C243 (UniProt Q5VYK3), the “log2 mean competition ratio” value is -0.00761.

As for DSN1 C65 (UniProt Q9H410), the “log2 mean competition ratio” value amounted to 0.0351.

E2F7 C151: the “log2 mean competition ratio” value turned out to be 0.0314.

As for EFL1 C831 (UniProt Q7Z2Z2), the “log2 mean competition ratio” value stood at 0.194.

Take ECT2 C796 (UniProt Q9H8V3): the “log2 mean competition ratio” value was 0.0128.

Regarding EGLN1 C208 (UniProt Q9GZT9), the “log2 mean competition ratio” value was -0.0309.

Regarding DSP C57 (UniProt P15924), the “log2 mean competition ratio” value was -0.0647.

For the target DUSP11 C117, the “log2 mean competition ratio” value was -0.338.

Consider EFL1 C402 (UniProt Q7Z2Z2), for which the “log2 mean competition ratio” value amounted to 0.405.

E2F5 C121: the “log2 mean competition ratio” value amounted to 0.0383.

Turning to EIF3I C144, the “log2 mean competition ratio” value was -0.198.

Consider DST C6799 (UniProt Q03001), for which the “log2 mean competition ratio” value is -0.0317.

As for DUS1L C426 (UniProt Q6P1R4), the “log2 mean competition ratio” value is -0.603.

On to DYNC2I1 C1047, for which the “log2 mean competition ratio” value was found to be 0.108.

Consider ELAC2 C609 (UniProt Q9BQ52), for which the “log2 mean competition ratio” value was determined as 0.355.

On to DYNLL1 C24 (UniProt P63167), for which the “log2 mean competition ratio” value worked out at 0.0179.

Regarding DSG2 C580 (UniProt Q14126), the “log2 mean competition ratio” value came out at 0.149.

EDC3 C47 (UniProt Q96F86): the “log2 mean competition ratio” value is -0.249.

For the target ECI2 C77 (UniProt O75521), the “log2 mean competition ratio” value was -0.164.

On to ELAVL1 C13 (UniProt Q15717), for which the “log2 mean competition ratio” value was -0.594.

As for DST C7524 (UniProt Q03001), the “log2 mean competition ratio” value worked out at 0.168.

Regarding EFCAB7 C524 (UniProt A8K855), the “log2 mean competition ratio” value is -0.213.

For the target DSC3 C814, the “log2 mean competition ratio” value is -0.148.

As for EIF5B C635 (UniProt O60841), the “log2 mean competition ratio” value was -0.692.

As for EFTUD2 C780 (UniProt Q15029), the “log2 mean competition ratio” value is -0.433.

For the target DYNC1LI2 C191 (UniProt O43237), the “log2 mean competition ratio” value was -0.0311.

For DYNC1H1 C4438 (UniProt Q14204), the “log2 mean competition ratio” value is -0.312.

As to DST C2061 (UniProt Q03001), the “log2 mean competition ratio” value was -0.164.

On to EIF3K C190 (UniProt Q9UBQ5), for which the “log2 mean competition ratio” value was 0.884.

For EEF2 C591 (UniProt P13639), the “log2 mean competition ratio” value was -0.384.

As for EEFSEC C289 (UniProt P57772), the “log2 mean competition ratio” value was -0.242.

For DSG2 C840 (UniProt Q14126), the “log2 mean competition ratio” value was -0.056.

On to DSP C1280 (UniProt P15924), for which the “log2 mean competition ratio” value is -0.156.

In the case of EHBP1 C849 (UniProt Q8NDI1), the “log2 mean competition ratio” value stood at 0.705.

As to EFR3A C538 (UniProt Q14156), the “log2 mean competition ratio” value is 0.0435.

Take DSP C899 (UniProt P15924): the “log2 mean competition ratio” value is 0.351.

The values are drawn from the supplement of paper PMC11732987, “Enantioselective OTUD7B fragment discovery through chemoproteomics screening and high-throughput optimisation” (Communications Chemistry, 2025).
